According to publication PMC8580996, “2-Oxoglutarate derivatives can selectively enhance or inhibit the activity of human oxygenases” (Nature Communications, 2021):
“And” between values parts separate entries of the source, which are not always exact repeats. Equal entries are not always repeated. This continues a long series; more values of the same kind are listed elsewhere.

Protein sequences, listed by entry. Tags and fused reporters are not part of them. Lines headed by an entry give the natural chain unless they say otherwise; changes in a name come on top.
UniProt Q9NWT6: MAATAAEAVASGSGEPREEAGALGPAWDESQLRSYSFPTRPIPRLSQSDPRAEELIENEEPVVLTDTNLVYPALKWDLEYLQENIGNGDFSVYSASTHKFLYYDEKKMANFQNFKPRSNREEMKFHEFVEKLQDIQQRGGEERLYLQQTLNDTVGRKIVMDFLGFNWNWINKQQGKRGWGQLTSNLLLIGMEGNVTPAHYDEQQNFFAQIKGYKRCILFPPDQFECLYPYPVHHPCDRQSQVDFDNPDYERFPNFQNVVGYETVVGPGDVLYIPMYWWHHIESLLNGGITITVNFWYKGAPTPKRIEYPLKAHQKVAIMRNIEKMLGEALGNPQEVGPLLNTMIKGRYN

Key:
FIH [1] = target: T1, FIH (Homo sapiens, UniProt Q9NWT6); assay: FIH steady-state kinetic parameters (SPE-MS, initial hydroxylation rates); format: biochemical
Description: Final 2OG/2OG derivative concentrations are given in Supplementary Figs. 5 and 6. Reactions were monitored with a rate of ~1 sample/40 s using the same SPE-MS configuration as described above. Data were analyzed as described above and the slopes of the initial reaction rates (Supplementary Figs. 5 and 6) fitted to a Michaelis–Menten plot using non-linear regression (GraphPad Prism 5). […]
determine kinetic parameters for 2OG derivatives (continues on the following page). Maximum velocities (vapp ) and Michaelis constants (Kapp) of FIH were determined in independent triplicates for 2OG and the 2OG […]
SPE-MS as described in the Methods section. […]
acid (LAA), and 20 μM ammonium iron(II) sulfate hexahydrate (FAS, (NH4)2Fe(SO4)2·6H2O) in buffer (50 mM […]
Tris, 50 mM NaCl, pH 7.5, 20° C). […]
data are provided as a Source Data file. […]
concentrations of 2OG; (b) hydroxylation rates used to determine kinetic parameters of FIH for 2OG; (c) time […]
3-methyl-2OG (1); (d) hydroxylation rates used to determine kinetic parameters of FIH for 1; (e) time course of […]
2OG (12); (f) hydroxylation rates used to determine kinetic parameters of FIH for 12; (g) time course of the FIH- […]
(h) hydroxylation rates used to determine kinetic parameters of FIH for 14; (i) time course of the FIH-catalyzed […]
(carboxycarbonyl)cyclopentane-1-carboxylic acid (22); (j) hydroxylation rates used to determine kinetic parameters of FIH for 22.
Supplementary Figure 6. Hydroxylation rates of FIH-catalyzed CA1-20 hydroxylations used to determine kinetic parameters for 2OG derivatives (continues on the following page). Maximum velocities (vapp ) and […]
ammonium iron(II) sulfate hexahydrate (FAS, (NH4)2Fe(SO4)2·6H2O) in buffer (50 mM Tris, 50 mM NaCl, pH […]
Source data are provided as a Source […]
of 2OG; (b) hydroxylation rates used to determine kinetic parameters of FIH for 2OG; (c) time course of the FIH-catalyzed hydroxylation reaction of the CA1-20 peptide for the shown concentrations of 3-methyl-2OG (1); (d) hydroxylation rates used to determine kinetic parameters of FIH for 1; (e) time course of the FIH -catalyzed hydroxylation reaction of the CA 1-20 peptide for the shown concentrations of 4 -methyl-2OG (12); (f) hydroxylation rates used to determine kinetic parameters of FIH for 12; (g) time course of the FIH-catalyzed hydroxylation reaction of the CA1-20 peptide for the shown concentrations of 4-ethyl-2OG (14); (h) hydroxylation rates used to determine kinetic parameters of FIH for 14; (i) time course of the FIH-catalyzed hydroxylation reaction of the CA1-20 peptide for the shown concentrations of 3-(carboxycarbonyl)cyclopentane-1-carboxylic acid (22); (j) hydroxylation rates used to determine kinetic parameters of FIH for 22.

FIH [2] = target: T1, FIH; assay: Competition assay in a single reaction vessel, FIH-catalyzed hydroxylation (SPE-MS); format: biochemical; conditions: Fig 2e, 20 μM 12 and 100 μM 2OG, 0.956333 min
Description: Mean of three independent runs (n = 3; mean ± SD). […] Cosubstrates: a 20 μM 2OG; b 20 μM 2OG; c 20 μM 1; d 20 μM 12; e 20 μM 12 and 100 μM 2OG; f 100 μM 14. Source data are provided as a Source Data file.
Mean of three independent runs (n = 3; mean ± SD). […] Source data are provided as a Source Data file.
Peptide turnover was monitored by SPE-MS using the same instrument configuration (with the exception that the peptides were eluted from the SPE cartridge with 0.1%v/v aqueous formic acid in 80/20 v/v acetonitrile/water) as described above.
FIH and AspH-catalyzed peptide hydroxylations were analyzed simultaneously using SPE-MS as described in the
Methods section; competition experiments were performed in the same reaction vessel using equimolar 2OG
oxygenase and substrate concentrations. […]
Source data are provided as a Source Data file.
FIH and AspH-catalyzed peptide hydroxylations were analyzed simultaneously using SPE-
MS as described in the Methods section; competition experiments were performed in the same reaction vessel
using equimolar 2OG oxygenase and substrate concentrations. […]
2OG, 100 μM 14. Source data are provided as a Source Data file.

- SPE-MS determined concentration of hydroxylated HIF-1a peptide (FIH [1]; 0.25 uM compound 12, time 2.797 min): 0.09071 µM and 0.1412 µM and 0.124 µM
- SPE-MS determined concentration of hydroxylated HIF-1a peptide (FIH [1]; 0.25 uM compound 12, time 3.49667 min): 0.09993 µM and 0.1464 µM and 0.1378 µM
- SPE-MS determined concentration of hydroxylated HIF-1a peptide (FIH [1]; 0.25 uM compound 12, time 4.19733 min): 0.1129 µM and 0.1583 µM and 0.1483 µM
- SPE-MS determined concentration of hydroxylated HIF-1a peptide (FIH [1]; 0.25 uM compound 12, time 4.89717 min): 0.1089 µM and 0.1658 µM and 0.1602 µM
- SPE-MS determined concentration of hydroxylated HIF-1a peptide (FIH [1]; 0.25 uM compound 12, time 5.5955 min): 0.1176 µM and 0.1603 µM and 0.1592 µM
- SPE-MS determined concentration of hydroxylated HIF-1a peptide (FIH [1]; 0.25 uM compound 12, time 6.29533 min): 0.1145 µM and 0.1639 µM and 0.1489 µM
- SPE-MS determined concentration of hydroxylated HIF-1a peptide (FIH [1]; 0.5 uM compound 12, time 2.797 min): 0.1725 µM and 0.1847 µM
- SPE-MS determined concentration of hydroxylated HIF-1a peptide (FIH [1]; 0.5 uM compound 12, time 3.49667 min): 0.2391 µM and 0.187 µM and 0.2119 µM
- SPE-MS determined concentration of hydroxylated HIF-1a peptide (FIH [1]; 0.5 uM compound 12, time 4.19733 min): 0.2658 µM and 0.2045 µM and 0.2266 µM
- SPE-MS determined concentration of hydroxylated HIF-1a peptide (FIH [1]; 0.5 uM compound 12, time 4.89717 min): 0.2681 µM and 0.219 µM and 0.2299 µM
- SPE-MS determined concentration of hydroxylated HIF-1a peptide (FIH [1]; 0.5 uM compound 12, time 5.5955 min): 0.2701 µM and 0.2146 µM and 0.247 µM
- SPE-MS determined concentration of hydroxylated HIF-1a peptide (FIH [1]; 0.5 uM compound 12, time 6.29533 min): 0.259 µM and 0.2091 µM and 0.237 µM
- SPE-MS determined concentration of hydroxylated HIF-1a peptide (FIH [1]; 1 uM compound 12, time 3.49667 min): 0.3014 µM and 0.3634 µM and 0.3734 µM
- SPE-MS determined concentration of hydroxylated HIF-1a peptide (FIH [1]; 1 uM compound 12, time 4.19733 min): 0.3294 µM and 0.3948 µM and 0.4133 µM
- SPE-MS determined concentration of hydroxylated HIF-1a peptide (FIH [1]; 1 uM compound 12, time 4.89717 min): 0.3454 µM and 0.4241 µM and 0.4354 µM
- SPE-MS determined concentration of hydroxylated HIF-1a peptide (FIH [1]; 1 uM compound 12, time 5.5955 min): 0.3453 µM and 0.4357 µM and 0.4408 µM
- SPE-MS determined concentration of hydroxylated HIF-1a peptide (FIH [1]; 1 uM compound 12, time 6.29533 min): 0.3306 µM and 0.4276 µM and 0.4472 µM
- SPE-MS determined concentration of hydroxylated HIF-1a peptide (FIH [1]; 2 uM compound 12, time 3.49667 min): 0.4649 µM and 0.5223 µM and 0.5427 µM
- SPE-MS determined concentration of hydroxylated HIF-1a peptide (FIH [1]; 2 uM compound 12, time 4.19733 min): 0.5216 µM and 0.5936 µM and 0.6251 µM
- SPE-MS determined concentration of hydroxylated HIF-1a peptide (FIH [1]; 2 uM compound 12, time 4.89717 min): 0.5568 µM and 0.6359 µM and 0.6495 µM
- SPE-MS determined concentration of hydroxylated HIF-1a peptide (FIH [1]; 2 uM compound 12, time 5.5955 min): 0.5773 µM and 0.6428 µM and 0.6897 µM
- SPE-MS determined concentration of hydroxylated HIF-1a peptide (FIH [1]; 2 uM compound 12, time 6.29533 min): 0.579 µM and 0.6277 µM and 0.6979 µM
- SPE-MS determined concentration of hydroxylated HIF-1a peptide (FIH [1]; 4 uM compound 12, time 3.49667 min): 0.9275 µM and 0.7569 µM and 0.728 µM
- SPE-MS determined concentration of hydroxylated HIF-1a peptide (FIH [1]; 4 uM compound 12, time 4.19733 min): 1.07 µM and 0.847 µM and 0.8317 µM
- SPE-MS determined concentration of hydroxylated HIF-1a peptide (FIH [1]; 4 uM compound 12, time 4.89717 min): 1.168 µM and 0.9361 µM and 0.9243 µM
- SPE-MS determined concentration of hydroxylated HIF-1a peptide (FIH [1]; 4 uM compound 12, time 5.5955 min): 1.209 µM and 0.999 µM and 0.9606 µM
- SPE-MS determined concentration of hydroxylated HIF-1a peptide (FIH [1]; 4 uM compound 12, time 6.29533 min): 1.222 µM and 1.005 µM and 0.9645 µM
- SPE-MS determined concentration of hydroxylated HIF-1a peptide (FIH [1]; 8 uM compound 12, time 3.49667 min): 0.9111 µM and 0.9347 µM and 0.8089 µM
- SPE-MS determined concentration of hydroxylated HIF-1a peptide (FIH [1]; 8 uM compound 12, time 4.19733 min): 1.038 µM and 1.103 µM and 0.9365 µM
- SPE-MS determined concentration of hydroxylated HIF-1a peptide (FIH [1]; 8 uM compound 12, time 4.89717 min): 1.139 µM and 1.195 µM and 1.014 µM
- SPE-MS determined concentration of hydroxylated HIF-1a peptide (FIH [1]; 8 uM compound 12, time 5.5955 min): 1.192 µM and 1.298 µM and 1.073 µM
- SPE-MS determined concentration of hydroxylated HIF-1a peptide (FIH [1]; 8 uM compound 12, time 6.29533 min): 1.196 µM and 1.327 µM and 1.105 µM
- SPE-MS determined concentration of hydroxylated HIF-1a peptide (FIH [1]; 16 uM compound 12, time 3.49667 min): 1.022 µM and 0.9265 µM and 0.9433 µM
- SPE-MS determined concentration of hydroxylated HIF-1a peptide (FIH [1]; 16 uM compound 12, time 4.19733 min): 1.17 µM and 1.078 µM and 1.089 µM
- SPE-MS determined concentration of hydroxylated HIF-1a peptide (FIH [1]; 16 uM compound 12, time 4.89717 min): 1.289 µM and 1.185 µM and 1.195 µM
- SPE-MS determined concentration of hydroxylated HIF-1a peptide (FIH [1]; 16 uM compound 12, time 5.5955 min): 1.344 µM and 1.278 µM and 1.256 µM
- SPE-MS determined concentration of hydroxylated HIF-1a peptide (FIH [1]; 16 uM compound 12, time 6.29533 min): 1.364 µM and 1.297 µM and 1.311 µM
- SPE-MS determined concentration of hydroxylated HIF-1a peptide (FIH [1]; 32 uM compound 12, time 3.49667 min): 0.8916 µM and 0.976 µM and 0.97 µM
- SPE-MS determined concentration of hydroxylated HIF-1a peptide (FIH [1]; 32 uM compound 12, time 4.19733 min): 1.038 µM and 1.128 µM and 1.132 µM
- SPE-MS determined concentration of hydroxylated HIF-1a peptide (FIH [1]; 32 uM compound 12, time 4.89717 min): 1.15 µM and 1.251 µM and 1.234 µM
- SPE-MS determined concentration of hydroxylated HIF-1a peptide (FIH [1]; 32 uM compound 12, time 5.5955 min): 1.241 µM and 1.308 µM and 1.329 µM
- SPE-MS determined concentration of hydroxylated HIF-1a peptide (FIH [1]; 32 uM compound 12, time 6.29533 min): 1.275 µM and 1.312 µM and 1.359 µM
- substrate hydroxylation (% conversion) (FIH [2]): 51.2304 and 48.0779
Compound: CC(CC(=O)C(=O)O)C(=O)O (stereo not shown) [compound 12, 4-methyl-2OG]
